Test results as given in patent publication US20240190920A1, “BECLIN 1-TARGETED STAPLED PEPTIDE AND PHARMACEUTICAL COMPOSITION” (Shenzhen Research Institute of the Hong Kong Polytechnic …, priority 2021, published 2024).
Some of these results come from one statement about several compounds together. Bridge positions count the residues as written; N and C are the ends. Square brackets hold non-standard residues; d marks the D form. Peptide text beside a SMILES is read from it. R8 = C=CCCCCCC[C@@](C)(N)C(=O)O; S5 = C=CCCC[C@](C)(N)C(=O)O

Tested on: SKBR3 cells
Test: Trypan blue exclusion assay, IC50 in SKBR3 cells
Type: cell-based
Conditions: SKBR3, ratio of IC50
Experimental: (a) Trypan blue exclusion assay to assess the cytotoxicity IC50 (half maximal inhibitory concentration) of the indicated peptides in SKBR3 cells. Cells are treated with various concentrations of the indicated peptides for 24h. Cell numbers are manually counted by the trypan blue exclusion assay using a hemocytometer. Data are presented as mean±SD from three independent experiments. (b-d) Cell proliferation assay is performed over a time span of five days in SKBR3 cells after treatment with the indicated peptides. Cells are treated with the indicated peptides at day 0 and the cell number is calculated at the given time points. The assay is performed in 96 well plates with three independent measurements. Tat-SC4 is a control peptide with scrambled Tat-SP4 sequence but without the hydrocarbon staple.
Cell viability is measured by trypan blue exclusion assay following the standard protocol provided by the manufacturer. SKBR3 cells are seeded on 96-well plates containing complete medium at a density of 1×10^4 cells per well. […] Afterwards, the number of trypan blue positive staining cells and the number of total cells are manually counted under a light microscope (Olympus). Cell viability is calculated as the number of viable cells divided by the total number of cells. All experiments are repeated in triplicate and the mean is calculated.

CC[C@H](C)[C@@H]1NC(=O)[C@H](C(C)C)NC(=O)[C@H](CC(=O)O)NC(=O)[C@H](C(C)C)NC(=O)[C@H](CC(C)C)NC(=O)[C@](C)(NC(=O)[C@H](CC(N)=O)NC(=O)[C@H](Cc2ccccc2)NC(=O)[C@H](CC(C)C)NC(=O)[C@@H](NC(=O)[C@H](CCCNC(=N)N)NC(=O)[C@H](CCCNC(=N)N)NC(=O)[C@H](CCCNC(=N)N)NC(=O)[C@H](CCC(N)=O)NC(=O)[C@H](CCCNC(=N)N)NC(=O)[C@H](CCCNC(=N)N)NC(=O)[C@H](CCCCN)NC(=O)[C@H](CCCCN)NC(=O)[C@H](CCCNC(=N)N)NC(=O)CNC(=O)[C@H](Cc2ccc(O)cc2)NC(C)=O)C(C)C)CCCCCCC=CCCC[C@@](C)(C(=O)N[C@@H](CCCNC(=N)N)C(=O)N[C@@H](CCCCN)C(=O)N[C@H](C(N)=O)C(C)C)NC(=O)[C@H](CCCCN)NC1=O [i7-01s-31] (Ac-YGRKKRRQRRRVLFN[R8]LVDVIK[S5]RKV-NH2; staple 16-23)
times more potent than Tat-SP4 (anti-proliferative): 2-5 times
